{"source": "patent US20170189504A1", "about": "“NOVEL PEPTIDES AND COMBINATION OF PEPTIDES FOR USE IN IMMUNOTHERAPY AGAINST VARIOUS CANCERS” (immatics biotechnologies GmbH, priority 2015, published 2017)", "key": {"[1]": {"tested_on": "source genes (mRNA)", "experiment": "Expression profiling of source genes by in-house RNASeq of tumor and normal tissues (Table 18, FIG. 2)", "design": "species or system human; key: very highly over-expressed in tumors compared to a panel of normal tissues (+++); highly over-expressed in tumors compared to a panel of normal tissues (++); over-expressed in tumors compared to a panel of normal tissues (+)", "conditions": "source gene of peptide; for Expression score GB: glioblastoma (N = 24) vs panel of normal tissues; for Expression score NSCLC: non-small cell lung cancer (N = 11) vs panel of normal tissues"}, "[2]": {"tested_on": "source genes (mRNA)", "experiment": "Gene and exon expression of source genes, TCGA tumor samples compared with normal tissue samples (Lonsdale, 2013) (Table 17)", "design": "species or system human", "conditions": "for Over-expression category of source gene (target coverage), BRCA: BRCA = Breast cancer (N = 1104), tumors more than 2-fold above highest 75% percentile of normal tissues; for Over-expression category of source gene (target coverage), COAD: COAD = Colon and rectal adenocarcinoma (N = 462); for Over-expression category of source gene (target coverage), ESCA: ESCA = Esophageal cancer (N = 185); for Over-expression category of source gene (target coverage), GBM: GBM = Glioblastoma multiforme (N = 169); for Over-expression category of source gene (target coverage), LGG: LGG = Lower grade glioma (N = 534); for Over-expression category of source gene (target coverage), LUAD: LUAD = Lung adenocarcinoma (N = 517); for Over-expression category of source gene (target coverage), LUSC: LUSC = Lung squamous cell carcinoma (N = 503); for Over-expression category of source gene (target coverage), OV: OV = Ovarian serous cystadenocarcinoma (N = 309); for Over-expression category of source gene (target coverage), PRAD: PRAD = Prostate adenocarcinoma (N = 498); for Over-expression category of source gene (target coverage), READ: READ = Colon and rectal adenocarcinoma (N = 167); for Over-expression category of source gene (target coverage), SKCM: SKCM = Skin cutaneous melanoma (N = 473); for Over-expression category of source gene (target coverage), STAD: STAD = Stomach adenocarcinoma (N = 415); for Over-expression category of source gene (target coverage), UCEC: UCEC = Uterine corpus endometrial carcinoma (N = 546)"}, "[3]": {"tested_on": "HLA-A*24", "experiment": "Identification and relative LC-MS quantitation of HLA-A*24-presented tumor-associated peptides on tissue samples (presentation profiles, Tables 14A, 14B, 16, FIG. 1)", "design": "species or system human; key to Presentation score GC / Presentation score NSCLC / Presentation score PCA / Presentation score GB / Presentation score HCC / Presentation score RCC: specifically presented on tumors (++++); very highly over-presented on tumors compared to a panel of normal tissues (+++); highly over-presented on tumors compared to a panel of normal tissues (++); over-presented on tumors compared to a panel of normal tissues (+)", "conditions": "for Presentation score GC: gastric cancer (N = 44) vs panel of normal tissues (N = 70); for Presentation score GB: glioblastoma (N = 18) vs panel of normal tissues (N = 70); for Peptide Presentation on cancer entities: Table 14A, HLA-A*24-binding tumor-associated peptides, cancer entities on which the peptide was found presented"}}, "note": "For part of these data: Expression grades refer to the transcript from which the peptide derives; gene names, where given, were looked up from the sequence."}
{"substance": "158: peptide found in PRKDC (gene looked up) (HYSQELSLLYL; listed as Homo sapiens) [compound 158]", "values": [{"measurement": "Expression score BRCA", "setting": "[1]; BRCA tumors vs panel of normal tissues", "result": "+"}, {"measurement": "Expression score CRC", "setting": "[1]; colorectal cancer (N = 20) vs panel of normal tissues", "result": "+"}, {"measurement": "Expression score OSCAR", "setting": "[1]; esophageal cancer incl. gastric-esophageal junction (N = 11) vs panel of normal tissues", "result": "+"}, {"measurement": "Expression score GB", "setting": "[1]", "result": "+"}, {"measurement": "Expression score NHL", "setting": "[1]; non-Hodgkin lymphoma (N = 10) vs panel of normal tissues", "result": "+"}, {"measurement": "Expression score NSCLC", "setting": "[1]", "result": "+"}, {"measurement": "Expression score OC", "setting": "[1]; ovarian cancer (N = 12) vs panel of normal tissues", "result": "+"}, {"measurement": "Expression score SCLC", "setting": "[1]; small cell lung cancer (N = 10) vs panel of normal tissues", "result": "+"}, {"measurement": "Over-expression category of source gene (target coverage), BLCA", "setting": "[2]; BLCA = Bladder urothelial carcinoma (N = 408), same cutoff", "result": "B (>= 20% of tumors above the cutoff, but <50%)"}, {"measurement": "Over-expression category of source gene (target coverage), BRCA", "setting": "[2]", "result": "A (>=50% of tumors above the cutoff)"}, {"measurement": "Over-expression category of source gene (target coverage), CHOL", "setting": "[2]; CHOL = Cholangiocarcinoma (N = 36), same cutoff", "result": "C (>=5% of tumors above the cutoff, but <20%)"}, {"measurement": "Over-expression category of source gene (target coverage), COAD", "setting": "[2]; same cutoff", "result": "B (>= 20% of tumors above the cutoff, but <50%)"}, {"measurement": "Over-expression category of source gene (target coverage), DLBC", "setting": "[2]; DLBC = Lymphoid neoplasm diffuse large B-cell lymphoma (N = 48), same cutoff", "result": "C (>=5% of tumors above the cutoff, but <20%)"}, {"measurement": "Over-expression category of source gene (target coverage), ESCA", "setting": "[2]; same cutoff", "result": "A (>=50% of tumors above the cutoff)"}, {"measurement": "Over-expression category of source gene (target coverage), GBM", "setting": "[2]; same cutoff", "result": "C (>=5% of tumors above the cutoff, but <20%)"}, {"measurement": "Over-expression category of source gene (target coverage), LAML", "setting": "[2]; LAML = Acute Myeloid Leukemia (N = 173), same cutoff", "result": "A (>=50% of tumors above the cutoff)"}, {"measurement": "Over-expression category of source gene (target coverage), LGG", "setting": "[2]; same cutoff", "result": "C (>=5% of tumors above the cutoff, but <20%)"}, {"measurement": "Over-expression category of source gene (target coverage), LUAD", "setting": "[2]; same cutoff", "result": "B (>= 20% of tumors above the cutoff, but <50%)"}, {"measurement": "Over-expression category of source gene (target coverage), LUSC", "setting": "[2]; same cutoff", "result": "A (>=50% of tumors above the cutoff)"}, {"measurement": "Over-expression category of source gene (target coverage), OV", "setting": "[2]; same cutoff", "result": "C (>=5% of tumors above the cutoff, but <20%)"}, {"measurement": "Over-expression category of source gene (target coverage), PRAD", "setting": "[2]; same cutoff", "result": "C (>=5% of tumors above the cutoff, but <20%)"}, {"measurement": "Over-expression category of source gene (target coverage), READ", "setting": "[2]; same cutoff", "result": "B (>= 20% of tumors above the cutoff, but <50%)"}, {"measurement": "Over-expression category of source gene (target coverage), SKCM", "setting": "[2]; same cutoff", "result": "A (>=50% of tumors above the cutoff)"}, {"measurement": "Over-expression category of source gene (target coverage), STAD", "setting": "[2]; same cutoff", "result": "B (>= 20% of tumors above the cutoff, but <50%)"}, {"measurement": "Over-expression category of source gene (target coverage), UCEC", "setting": "[2]; same cutoff", "result": "C (>=5% of tumors above the cutoff, but <20%)"}, {"measurement": "number of cancer tissues where the peptide was found to be presented", "setting": "[3]; FIG. 1, A*24 positive samples, only samples with presentation shown", "result": 19}, {"measurement": "Presentation score GC", "setting": "[3]; HLA-A*24 peptides", "result": "++++"}, {"measurement": "Presentation score GB", "setting": "[3]; HLA-A*24 peptides", "result": "++++"}, {"measurement": "Presentation score HCC", "setting": "[3]; HLA-A*24 peptides, hepatocellular carcinoma (N = 15) vs panel of normal tissues (N = 70)", "result": "++++"}, {"measurement": "Presentation score NSCLC", "setting": "[3]; HLA-A*24 peptides, non-small cell lung cancer (N = 91) vs panel of normal tissues (N = 70)", "result": "++++"}, {"measurement": "Presentation score PCA", "setting": "[3]; HLA-A*24 peptides, prostate cancer (N = 40) vs panel of normal tissues (N = 70)", "result": "++++"}, {"measurement": "Presentation score RCC", "setting": "[3]; HLA-A*24 peptides, renal cell carcinoma (N = 2) vs panel of normal tissues (N = 70)", "result": "++++"}, {"measurement": "Peptide Presentation on cancer entities", "setting": "[3]", "result": "GB, GC, NSCLC, HCC, PCA, RCC"}]}
{"substance": "207: peptide found in HEATR5A (gene looked up) (AYVVFVSTL; listed as Homo sapiens) [compound 207]", "values": [{"measurement": "Expression score GB", "setting": "[1]", "result": "+"}, {"measurement": "Expression score NSCLC", "setting": "[1]", "result": "+"}, {"measurement": "Over-expression category of source gene (target coverage), BRCA", "setting": "[2]", "result": "C (>=5% of tumors above the cutoff, but <20%)"}, {"measurement": "Over-expression category of source gene (target coverage), COAD", "setting": "[2]; same cutoff", "result": "C (>=5% of tumors above the cutoff, but <20%)"}, {"measurement": "Over-expression category of source gene (target coverage), ESCA", "setting": "[2]; same cutoff", "result": "B (>= 20% of tumors above the cutoff, but <50%)"}, {"measurement": "Over-expression category of source gene (target coverage), GBM", "setting": "[2]; same cutoff", "result": "A (>=50% of tumors above the cutoff)"}, {"measurement": "Over-expression category of source gene (target coverage), LGG", "setting": "[2]; same cutoff", "result": "B (>= 20% of tumors above the cutoff, but <50%)"}, {"measurement": "Over-expression category of source gene (target coverage), LUAD", "setting": "[2]; same cutoff", "result": "C (>=5% of tumors above the cutoff, but <20%)"}, {"measurement": "Over-expression category of source gene (target coverage), LUSC", "setting": "[2]; same cutoff", "result": "B (>= 20% of tumors above the cutoff, but <50%)"}, {"measurement": "Over-expression category of source gene (target coverage), OV", "setting": "[2]; same cutoff", "result": "B (>= 20% of tumors above the cutoff, but <50%)"}, {"measurement": "Over-expression category of source gene (target coverage), PRAD", "setting": "[2]; same cutoff", "result": "C (>=5% of tumors above the cutoff, but <20%)"}, {"measurement": "Over-expression category of source gene (target coverage), READ", "setting": "[2]; same cutoff", "result": "C (>=5% of tumors above the cutoff, but <20%)"}, {"measurement": "Over-expression category of source gene (target coverage), SKCM", "setting": "[2]; same cutoff", "result": "C (>=5% of tumors above the cutoff, but <20%)"}, {"measurement": "Over-expression category of source gene (target coverage), STAD", "setting": "[2]; same cutoff", "result": "C (>=5% of tumors above the cutoff, but <20%)"}, {"measurement": "Over-expression category of source gene (target coverage), UCEC", "setting": "[2]; same cutoff", "result": "C (>=5% of tumors above the cutoff, but <20%)"}, {"measurement": "Presentation score GC", "setting": "[3]; HLA-A*24 peptides", "result": "+++"}, {"measurement": "Presentation score GB", "setting": "[3]; HLA-A*24 peptides", "result": "+++"}, {"measurement": "Peptide Presentation on cancer entities", "setting": "[3]", "result": "GB, GC, NSCLC"}]}
